Results are given in words; binding and its absence hold for the method and conditions named. Binding seen in cells or lysates may run through a third protein. Some entries that bind do so weakly or less than the wild type.
Target: SUN2 (endogenous, A2780) (human (endogenous in A2780)) (UniProt Q9UH99)
Assay: co-IP; A2780 cell lysates, MG132 treatment; immunoprecipitation with IgG or anti-SUN2 antibody; immunoblotting

Chains of the proteins cited; added tags and fusions are not shown.
UniProt Q9UH99: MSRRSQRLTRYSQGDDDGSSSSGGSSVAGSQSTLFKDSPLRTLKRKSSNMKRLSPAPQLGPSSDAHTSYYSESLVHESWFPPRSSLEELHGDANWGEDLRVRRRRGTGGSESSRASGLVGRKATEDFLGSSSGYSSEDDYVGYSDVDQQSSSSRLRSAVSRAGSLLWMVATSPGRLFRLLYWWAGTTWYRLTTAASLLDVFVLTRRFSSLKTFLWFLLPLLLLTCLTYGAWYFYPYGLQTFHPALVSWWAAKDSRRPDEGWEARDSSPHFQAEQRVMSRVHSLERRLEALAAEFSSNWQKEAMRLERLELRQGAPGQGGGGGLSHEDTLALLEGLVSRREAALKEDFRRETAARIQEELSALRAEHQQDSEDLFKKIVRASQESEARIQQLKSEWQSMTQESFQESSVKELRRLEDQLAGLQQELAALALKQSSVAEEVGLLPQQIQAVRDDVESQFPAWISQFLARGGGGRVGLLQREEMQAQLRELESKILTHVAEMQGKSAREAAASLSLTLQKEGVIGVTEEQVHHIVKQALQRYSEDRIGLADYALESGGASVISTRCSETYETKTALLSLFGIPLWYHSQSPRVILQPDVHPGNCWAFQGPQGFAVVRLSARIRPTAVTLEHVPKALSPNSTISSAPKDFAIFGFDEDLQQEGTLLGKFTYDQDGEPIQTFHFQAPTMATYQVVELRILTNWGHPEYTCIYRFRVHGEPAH

binding	Binder
binds	GST-FBXO2 WT (natural protein, human, UniProt Q9UK22 1-296, looked up, F-box protein FBXO2, human; also called GST tagged FBXO2) MDGDGDPESVGQPEEASPEEQPEEASAEEERPEDQQEEEAAAAAAYLDELPEPLLLRVLAALPAAELVQACRLVCLRWKELVDGAPLWLLKCQQEGLVPEGGVEEERDHWQQFYFLSKRRRNLLRNPCGEEDLEGWCDVEHGGDGWRVEELPGDSGVEFTHDESVKKYFASSFEWCRKAQVIDLQAEGYWEELLDTTQPAIVVKDWYSGRSDAGCLYELTVKLLSEHENVLAEFSSGQVAVPQDSDGGGWMEISHTFTDYGPGVRFVRFEHGGQDSVYWKGWFGARVTNSSVWVEP
no binding	FBXO16 (endogenous, A2780) (protein, UniProt Q8IX29 1-292) MMAFAPPKNTDGPKMQTKMSTWTPLNHQLLNDRVFEERRALLGKWFDKWTDSQRRRILTGLLERCSLSQQKFCCRKLQEKIPAEALDFTTKLPRVLSLYIFSFLDPRSLCRCAQVCWHWKNLAELDQLWMLKCLRFNWYINFSPTPFEQGIWKKHYIQMVKELHITKPKTPPKDGFVIADVQLVTSNSPEEKQSPLSAFRSSSSLRKKNNSGEKALPPWRSSDKHPTDIIRFNYLDNRDPMETVQQGRRKRNQMTPDFSRQSHDKKNKLQDRTRLRKAQSMMSRRNPFPLCP
